Assay: general procedure: peptide synthesis; HATU/DIPEA
Settings: conjugation step

## H-QGAIGLPGC-OH
  conjugation yield: 61%
